These are yes or no findings as the source states them, for the method shown. For part of these data: A result given as binding can be weak or reduced; the word gives no strength. For part of these data: Tags and fused reporters may be left off the sequences shown.
Columns and labels:
[1] = molecular target: T1, PqsD, bacterial two-hybrid fusion (P. aeruginosa) (UniProt P20582); experiment: two-hybrid
T1 sequence: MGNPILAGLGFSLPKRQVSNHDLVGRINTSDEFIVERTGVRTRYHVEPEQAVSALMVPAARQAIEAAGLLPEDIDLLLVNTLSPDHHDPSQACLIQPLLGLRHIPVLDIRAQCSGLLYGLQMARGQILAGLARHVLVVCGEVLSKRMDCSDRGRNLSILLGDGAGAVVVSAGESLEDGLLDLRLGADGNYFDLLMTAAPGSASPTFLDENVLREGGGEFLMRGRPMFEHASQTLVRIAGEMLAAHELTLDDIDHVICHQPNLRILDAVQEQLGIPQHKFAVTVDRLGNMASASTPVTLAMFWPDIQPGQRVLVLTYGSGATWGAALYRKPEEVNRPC

[2] = molecular target: PA1217 (full protein), bacterial two-hybrid fusion (P. aeruginosa PAO1) (UniProt Q9I4C1); experiment: two-hybrid

Row | Substance | binding [1] | binding [2]
1 | PA1217 (full protein), bacterial two-hybrid fusion (from UniProt Q9I4C1) (enzyme) | binds | 
2 | ThiD, bacterial two-hybrid fusion (from UniProt A0A0H2ZFT8) (enzyme) | no binding | no binding
